Binding data for seven molecules are collected here from paper PMC8187409, “The zinc-finger protein Red1 orchestrates MTREC submodules and binds the Mtl1 helicase arch domain” (Nature Communications, 2021).

Assay [1] deals with T1, Red1 187–236 fragment (GST pull-down) (S. pombe) (UniProt Q9UTR8).
T1 sequence: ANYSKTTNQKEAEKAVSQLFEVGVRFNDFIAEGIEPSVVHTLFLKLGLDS
Nature of the assay: pull-down; GST pull-down: bait with 1.5 molar excess of prey, 20 mM HEPES pH 7.5, 150 mM NaCl (or higher, up to 600 mM or 1.5 M in the washes), 5% glycerol, 0.1% NP-40, 4 °C, glutathione agarose; SDS-PAGE, Coomassie; both purified.

Assay [2] has as its target T2, Red1 (spRed1), full length (S. pombe) (UniProt Q9UTR8).
T2 sequence: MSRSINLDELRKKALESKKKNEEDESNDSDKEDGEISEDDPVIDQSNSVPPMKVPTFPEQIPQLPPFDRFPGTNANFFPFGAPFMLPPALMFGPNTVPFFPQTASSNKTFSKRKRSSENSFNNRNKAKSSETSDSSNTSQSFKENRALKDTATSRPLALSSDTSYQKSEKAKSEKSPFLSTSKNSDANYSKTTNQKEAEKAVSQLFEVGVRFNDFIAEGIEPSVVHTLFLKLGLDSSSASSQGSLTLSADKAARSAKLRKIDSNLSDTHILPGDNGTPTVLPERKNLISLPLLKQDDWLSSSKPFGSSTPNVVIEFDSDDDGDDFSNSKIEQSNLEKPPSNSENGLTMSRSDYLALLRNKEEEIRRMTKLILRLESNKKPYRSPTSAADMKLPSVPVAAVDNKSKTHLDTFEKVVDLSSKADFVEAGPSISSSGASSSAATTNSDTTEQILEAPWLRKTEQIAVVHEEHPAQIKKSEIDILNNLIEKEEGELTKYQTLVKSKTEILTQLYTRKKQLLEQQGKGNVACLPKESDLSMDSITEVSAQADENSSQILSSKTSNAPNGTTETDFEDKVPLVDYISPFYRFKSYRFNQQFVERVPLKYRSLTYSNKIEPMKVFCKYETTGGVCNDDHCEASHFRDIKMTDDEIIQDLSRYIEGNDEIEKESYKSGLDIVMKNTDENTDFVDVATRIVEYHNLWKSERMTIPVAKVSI
Put plainly: two-hybrid; Gal4 BD and AD fusions (pGBKT7/pGADT7 or pG4BDN22/pG4ADHAN111) co-transformed into PJ69-4A; growth after 3 days at 30 °C on SDC-His (weak), SDC-His + 1 mM 3-AT (medium), SDC-Ade (strong).

The target in assay [3] is T3, Red1 C-terminal region (residues 345–712) (S. pombe) (UniProt Q9UTR8).
T3 sequence: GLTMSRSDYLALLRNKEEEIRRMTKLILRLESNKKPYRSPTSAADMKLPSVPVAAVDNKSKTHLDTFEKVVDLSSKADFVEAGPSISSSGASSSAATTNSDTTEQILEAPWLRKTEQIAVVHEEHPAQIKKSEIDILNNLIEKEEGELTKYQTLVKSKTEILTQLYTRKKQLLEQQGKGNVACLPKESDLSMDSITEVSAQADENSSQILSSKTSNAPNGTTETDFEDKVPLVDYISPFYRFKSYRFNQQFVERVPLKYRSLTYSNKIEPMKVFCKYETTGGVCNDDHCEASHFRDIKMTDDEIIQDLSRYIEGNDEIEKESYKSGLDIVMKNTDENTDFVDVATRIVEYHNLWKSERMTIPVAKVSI
The assay is described as above.

Assay [4] addresses T4, Red1 N-terminal region (residues 1–187) (S. pombe) (UniProt Q9UTR8).
T4 sequence: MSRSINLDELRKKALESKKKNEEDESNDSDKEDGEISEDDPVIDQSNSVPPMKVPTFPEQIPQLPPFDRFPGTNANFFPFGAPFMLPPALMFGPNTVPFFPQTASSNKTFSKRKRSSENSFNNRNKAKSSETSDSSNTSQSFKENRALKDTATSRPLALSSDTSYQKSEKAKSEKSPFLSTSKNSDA
The description is as above.

Assay [5] has as its target Rmn1 (spRmn1), full length (S. pombe). The assay is described as above.
For assay [6], the target named is Iss10, full length (S. pombe). The description is as above.
Assay [7] addresses Red5 (spRed5), full length (S. pombe). The assay is described as above.
For assay [8], the target named is Rmn1 C-terminal region (residues 326–589) (S. pombe). Described as above.

These are yes or no findings as the source states them, for the method shown. A result given as binding can be weak or reduced; the word gives no strength. For some assays here: Tags and fused reporters may be left off the sequences shown.

With “Iss10 1–51 fragment (GST pull-down) (S. pombe) (domain or fragment)”, the binding entry in assay [1] is on record as “binds”.
Iss10, full length (S. pombe): in assay [2], the binding entry is recorded as “binds”.
For Red5 (spRed5), full length (S. pombe), the binding result in assay [2] is reported as “binds”.
Rmn1 (spRmn1), full length (S. pombe): the binding result in assay [2], in assay [3] and in assay [4] was “binds” in each case.

B1: Mmi1 (spMmi1), full length (protein, UniProt O74958 1-488)
chain: MSNTNFSTSRSSKSIPELPNLEALRSLWPPPSLNESGDTRSVWTTHTGEPVASSVLSTSGSNNFSSPLKRPAPESHDAPIGRRLMVDDPRLIKHGKYDFSRHCTDYGHSYEWPYFRSLRRESMLYHTSGSYPESQPPYSSYSTDAPHYYHAGSESSAYYDSRSRLHGIQPPPKRRTLSPPPRRLADPVVVGSSRYVEEEVYRRPPYTLASEVPSSASAYQAGYSSYPVRSSPQLSHEDTRHGIASSGSTRYPFVPANTRASHSPSLLEPYAHSLPSSVAPVGAYPEKSSYLLSNSSNDSASRKEKPKARASTPPPLNFSRASEHRNEKGERISMINPRVVLDENGISHRSRYFIMLCDNETAIAHAKKTSIWAVKKDSSKRISDAYKKASVYFIFVAQQTYNALGYAQVVSDLNSTELPFWSDSSHAGGVRIKWIKTCNLFSAEISEIVSHMDHGSEARDGMEMMYDEGSRLCTLINYAIMKRIGRDR
As to B1, the binding result in assay [5] and in assay [6] was “binds” in each case.

B2: Pab2 (spPab2), full length (protein, UniProt O14327 1-166)
chain: MSDQDALDTQEKELLEMKERVAEMEAEAAKLRAMQEQLDNETEALRNDKESIDAQSVYVGNVDYSVTPEELQSHFASCGSVNRVTILCDKFTGHPKGFAYIEFSEPSLVPNALLLNGSMLHERPLKVTPKRTNVPGMSRGRGRGRGRGRGRGRGGYRGRARGFAPY
For the molecule B2, the binding result in assay [7] and in assay [5] was “binds” each time.

B3: Pab2 lacking its C-terminal region (residues 137–166) (domain or fragment, UniProt O14327 1-136)
chain: MSDQDALDTQEKELLEMKERVAEMEAEAAKLRAMQEQLDNETEALRNDKESIDAQSVYVGNVDYSVTPEELQSHFASCGSVNRVTILCDKFTGHPKGFAYIEFSEPSLVPNALLLNGSMLHERPLKVTPKRTNVPG
B3: the binding entry in assay [8] is “binds”.
